Assay: Morphine abstinence model: indicator enzymes ALT, AST, γ-GTP in blood plasma
Conditions: control + Morphine (morphinized rats)
Protocol: The experiments were carried out on rats in series of 7 animals on each compound according to the invention. Non-morphinized animal with not administered with compounds according to the invention were used as a control group. […] Then the rats were decapitated, the blood from somnolent arteries was collected in test tubes with solution EDTA as an anticoagulant, centrifuged at 1500 g for 15 minutes at 4° C.
To estimate possible hepatoprotective action of the compounds according to the invention under conditions of development of an oxidizing stress in the liver cells, effect of these compounds on the most important biochemical blood indexes, in particular, on the content in blood plasma of indicator enzyme of aspartateaminotransferase (AST), alanineaminotransferase (ALT), γ-glutamiletranspeptidase (γ-GTP) was investigated. The content of enzymes was estimated by their catalyzing activity in blood plasma.
The activity of AST, ALT and γ-GTP was determined by means of diagnostic sets DiaSys, Germany.

SMILES: CN1CC[C@]23c4c5ccc(O)c4O[C@H]2[C@@H](O)C=C[C@H]3[C@H]1C5 [Morphine, morphine, reference compound]
- γ-GTP in blood plasma, Ci (control 6.261 ± 1.80): 16.80 ± 13.32 mE/l
- ALT in blood plasma, Ci (control 106.76 ± 111.35): 116.12 ± 110.44 mE/l
- AST in blood plasma, Ci (control 179.881 ± 11.94): 238.201 ± 14.71 mE/l

Source: US8592421B2, “Cyclic bioisosters of purine system derivatives and a pharmaceutical composition based thereon” (priority 2003, dated 2013)
